Laboratory results from article PMC12374587.

Amino acid sequences for entries named in this document (tags omitted).
UniProt P07355, whole entry: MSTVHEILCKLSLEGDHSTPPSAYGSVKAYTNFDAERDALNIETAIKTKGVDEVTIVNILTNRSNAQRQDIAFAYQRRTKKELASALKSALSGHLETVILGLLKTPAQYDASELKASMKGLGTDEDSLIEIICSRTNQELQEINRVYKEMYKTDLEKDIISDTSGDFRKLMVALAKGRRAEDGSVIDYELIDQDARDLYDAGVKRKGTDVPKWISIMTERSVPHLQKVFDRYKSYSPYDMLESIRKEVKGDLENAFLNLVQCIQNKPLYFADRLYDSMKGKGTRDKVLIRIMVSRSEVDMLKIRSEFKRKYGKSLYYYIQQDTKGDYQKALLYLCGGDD

How the values were obtained:
GST-ANXA2 (Annexin A2) [1] = molecular target: GST-ANXA2 (Annexin A2) (UniProt P07355); test: EMSA; conditions: 2 nM biotin-miR-150-3p; EMSA: Thermo Fisher kit, probes prepared in 5x TBE, room temperature, 20 min; recombinant protein; protein details: GST; letters put together from the description
[2] = tested on: ANXA2, endogenous, melanoma cell lysate; test: pull-down (streptavidin beads, Western blot); conditions: melanoma cell lysate; lysate pull-down: RIP buffer, 4 °C, 4 h; salt and pH not stated; protein in an extract; letters put together from the description
GST-ANXA2 (Annexin A2) [3] = molecular target: GST-ANXA2 (Annexin A2) (UniProt P07355); test: pull-down (streptavidin beads, Western blot); conditions: lysate pull-down: RIP buffer, 4 °C, 4 h; salt and pH not stated; recombinant protein; protein details: GST; letters put together from the description

Measured: binding result

CUGGUACAGGCCUGGGGGACAG [miR-150-3p]
binds: GST-ANXA2 (Annexin A2) [1] | [2] | GST-ANXA2 (Annexin A2) [3]

The exact form of at least one protein or probe is not confirmed. For part of these data: Results from cells or extracts need not show a direct contact.
